In publication PMC8742874:
Results are given in words; binding and its absence hold for the method and conditions named. Binding seen in cells or lysates may run through a third protein. These calls come from enrichment with a bait or labelling near it, and not all partners need be listed.

Molecular target: RNA-binding Fox protein 1, GFP protein trap (Rbfox1^CC00511) (Drosophila (endogenous in fly thoraces))
Experiment: affinity purification with mass spectrometry; about 500 mg thoraces of Rbfox1^CC00511 flies lysed in RIPA buffer with protease inhibitors, pre-cleared with Protein-G Dynabeads, immunoprecipitated with mouse anti-GFP (12A6) or IgG isotype control; beads washed in RIPA; unique SDS-PAGE bands cut and analysed by MALDI-TOF

B1: nonsense-mediated decay regulator Rent1 (protein, UniProt Q9VYS3 1-1180)
chain: MSVDTYAPSSALSFLDMDDNELLPGADTQPTQYDYRDFTMPSTSQSQTQNDQLEIAQRCSAGDSHPRLASITNDLADLQFEEEDDEPGSSYVKELPPHACKYCGIHDPATVVMCNNCRKWFCNGRGSTSGSHIINHLVRAKHREVTLHGEGPLGETILECYSCGVRNVFVLGFIPAKADSVVVLLCRQPCAAQNSLKDMNWDQEQWKPLIADRCFLAWLVKQPSEQGQLRARQISAAQINKLEELWKENIEATFQDLEKPGIDSEPAHVLLRYEDGYQYEKTFGPLVRLEAEYDQKLKESATQENIEVRWDVGLNKKTIAYFTLAKTDSDMKLMHGDELRLHYVGELYNPWSEIGHVIKVPDNFGDDVGLELKSSTNAPVKCTSNFTVDFIWKCTSFDRMTRALCKFAIDRNSVSNFIYSRLLGHGRADSNDEVLFRGPQPKLFSAPHLPDLNRSQVYAVKHALQRPLSLIQGPPGTGKTVTSATIVYQLVKLHGGTVLVCAPSNTAVDQLTEKIHRTNLKVVRVCAKSREAIDSPVSFLALHNQIRNMETNSELKKLQQLKDETGELSSADEKRYRNLKRAAENQLLEAADVICCTCVGAGDGRLSRVKFTSILIDESMQSTEPECMVPVVLGAKQLILVGDHCQLGPVVMCKKAARAGLSQSLFERLVVLGIRPFRLEVQYRMHPELSQFPSNFFYEGSLQNGVCAEDRRLKLDFPWPQPERPMFFLVTQGQEEIAGSGTSFLNRTEAANVEKITTRFLKAGIKPEQIGIITPYEGQRAYLVQYMQYQGSLHSRLYQEIEIASVDAFQGREKDIIIMSCVRSNERQGIGFLNDPRRLNVALTRAKFGIIIVGNPKVLAKQQLWNHLLNFYKDRKVLVEGSLNNLKESLIHFQKPKKLVNSMNIGAHFMSTIIADAKEVMVPGSIYDRSGGYGQGRQMVGQSMNGGQYGGSGGGPYGNSPLGYGTPSSNSMVGFGLGNGGNGAAGGNNNFGGAGPSWAAAHLHHDSIGYISNEHGAAALGNMPVPVGMFMNMSNIPPRFYNQHQQAIMAVKQNRAIQQQTGNFSPGNSGPGVTGVGVGRSATPGGNKKTNKLGKSRVTGGGTGGAPLTQGSSVCNAAPYSQHPMPLSLQMTQPSGFALSQQPELSQDFGQISQMDGLLSQDVAFNASGERSLNQFSQPY
Q: Which binding does the source give for B1 here?
A: binds
